{
  "source": "the supplement of paper PMC8728848",
  "experiment_in_all_cases": "glycan array binding signal (z-score within array); higher = stronger binding",
  "conditions_in_all_cases": "glycan notation: IUPAC condensed, linker removed",
  "key": {"[1]": {"target": "GlcNAc(b1-2)[GlcNAc(b1-4)]Man(a1-3)[GlcNAc(b1-4)][GlcNAc(b1-2)[GlcNAc(b1-6)]Man(a1-6)]Man(b1-4)GlcNAc(b1-4)GlcNAc", "outline": "(§1)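 Glycan array data came from 3228 arrays in the Consortium for Functional Glycomics database, and only arrays with an available protein sequence were kept. Glycan names were put into IUPAC-condensed notation, and columns mapping to the same glycan were averaged. The binding signal is a within-array Z-score, averaged across arrays of one protein sequence run at different concentrations or buffers and across linkers. A negative Z-score can be read as non-binding.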"}, "[2]": {"target": "GlcNAc(b1-2)[GlcNAc(b1-4)]Man(a1-3)[GlcNAc(b1-4)][GlcNAc(b1-2)[GlcNAc(b1-6)]Man(a1-6)]Man(b1-4)GlcNAc(b1-4)[Fuc(a1-6)]GlcNAc", "outline": "as §1"}, "[3]": {"target": "GlcNAc(b1-2)[GlcNAc(b1-6)]Man(a1-6)[GlcNAc(b1-2)Man(a1-3)]Man(b1-4)GlcNAc(b1-4)GlcNAc", "outline": "as §1"}, "[4]": {"target": "GlcNAc(b1-2)[GlcNAc(b1-6)]Man(a1-6)[GlcNAc(b1-2)Man(a1-3)]Man(b1-4)GlcNAc(b1-4)[Fuc(a1-6)]GlcNAc", "outline": "as §1"}, "[5]": {"target": "GlcNAc(b1-2)[GlcNAc(b1-6)]Man(a1-6)[GlcNAc(b1-4)][GlcNAc(b1-2)Man(a1-3)]Man(b1-4)GlcNAc(b1-4)GlcNAc", "outline": "as §1"}, "GlcNAc(b1-3)Fuc": {"target": "GlcNAc(b1-3)Fuc", "outline": "as §1"}, "GlcNAc(b1-3)Gal": {"target": "GlcNAc(b1-3)Gal", "outline": "as §1"}, "[6]": {"target": "GlcNAc(b1-3)Gal(b1-3)GalNAc", "outline": "as §1"}, "GlcNAc(b1-3)Gal(b1-4)Glc": {"target": "GlcNAc(b1-3)Gal(b1-4)Glc", "outline": "as §1"}, "[7]": {"target": "GlcNAc(b1-3)Gal(b1-4)GlcNAc", "outline": "as §1"}, "[8]": {"target": "GlcNAc(b1-3)Gal(b1-4)GlcNAc(b1-2)Man(a1-3)[GlcNAc(b1-3)Gal(b1-4)GlcNAc(b1-2)Man(a1-6)]Man(b1-4)GlcNAc(b1-4)GlcNAc", "outline": "as §1"}, "[9]": {"target": "GlcNAc(b1-3)Gal(b1-4)GlcNAc(b1-2)Man(a1-3)[GlcNAc(b1-3)Gal(b1-4)GlcNAc(b1-2)Man(a1-6)]Man(b1-4)GlcNAc(b1-4)[Fuc(a1-6)]GlcNAc", "outline": "as §1"}, "[10]": {"target": "GlcNAc(b1-3)Gal(b1-4)GlcNAc(b1-2)[GlcNAc(b1-3)Gal(b1-4)GlcNAc(b1-6)]Man(a1-6)[GlcNAc(b1-3)Gal(b1-4)GlcNAc(b1-2)Man(a1-3)]Man(b1-4)GlcNAc(b1-4)GlcNAc", "outline": "as §1"}, "[11]": {"target": "GlcNAc(b1-3)Gal(b1-4)GlcNAc(b1-3)Gal(b1-4)GlcNAc", "outline": "as §1"}, "[12]": {"target": "GlcNAc(b1-3)Gal(b1-4)GlcNAc(b1-3)Gal(b1-4)GlcNAc(b1-2)Man(a1-3)[GlcNAc(b1-3)Gal(b1-4)GlcNAc(b1-3)Gal(b1-4)GlcNAc(b1-2)Man(a1-6)]Man(b1-4)GlcNAc(b1-4)GlcNAc", "outline": "as §1"}, "[13]": {"target": "GlcNAc(b1-3)Gal(b1-4)GlcNAc(b1-3)Gal(b1-4)GlcNAc(b1-2)Man(a1-3)[GlcNAc(b1-3)Gal(b1-4)GlcNAc(b1-3)Gal(b1-4)GlcNAc(b1-2)Man(a1-6)]Man(b1-4)GlcNAc(b1-4)[Fuc(a1-6)]GlcNAc", "outline": "as §1"}, "[14]": {"target": "GlcNAc(b1-3)Gal(b1-4)GlcNAc(b1-3)Gal(b1-4)GlcNAc(b1-2)[GlcNAc(b1-3)Gal(b1-4)GlcNAc(b1-3)Gal(b1-4)GlcNAc(b1-6)]Man(a1-6)[GlcNAc(b1-3)Gal(b1-4)GlcNAc(b1-3)Gal(b1-4)GlcNAc(b1-2)Man(a1-3)]Man(b1-4)GlcNAc(b1-4)[Fuc(a1-6)]GlcNAc", "outline": "as §1"}, "[15]": {"target": "GlcNAc(b1-3)Gal(b1-4)GlcNAc(b1-3)Gal(b1-4)GlcNAc(b1-3)Gal(b1-4)GlcNAc(b1-2)Man(a1-3)[GlcNAc(b1-3)Gal(b1-4)GlcNAc(b1-3)Gal(b1-4)GlcNAc(b1-3)Gal(b1-4)GlcNAc(b1-2)Man(a1-6)]Man(b1-4)GlcNAc(b1-4)GlcNAc", "outline": "as §1"}, "[16]": {"target": "GlcNAc(b1-3)Gal(b1-4)GlcNAc(b1-3)Gal(b1-4)GlcNAc(b1-3)Gal(b1-4)GlcNAc(b1-2)Man(a1-3)[GlcNAc(b1-3)Gal(b1-4)GlcNAc(b1-3)Gal(b1-4)GlcNAc(b1-3)Gal(b1-4)GlcNAc(b1-2)Man(a1-6)]Man(b1-4)GlcNAc(b1-4)[Fuc(a1-6)]GlcNAc", "outline": "as §1"}, "[17]": {"target": "GlcNAc(b1-3)Gal(b1-4)GlcNAc(b1-3)Gal(b1-4)GlcNAc(b1-3)Gal(b1-4)GlcNAc(b1-2)[GlcNAc(b1-3)Gal(b1-4)GlcNAc(b1-3)Gal(b1-4)GlcNAc(b1-3)Gal(b1-4)GlcNAc(b1-6)]Man(a1-6)[GlcNAc(b1-3)Gal(b1-4)GlcNAc(b1-3)Gal(b1-4)GlcNAc(b1-3)Gal(b1-4)GlcNAc(b1-2)Man(a1-3)]Man(b1-4)GlcNAc(b1-4)[Fuc(a1-6)]GlcNAc", "outline": "as §1"}, "[18]": {"target": "GlcNAc(b1-3)Gal(b1-4)GlcNAc(b1-3)Gal(b1-4)GlcNAc(b1-3)Gal(b1-4)GlcNAc(b1-3)Gal(b1-4)GlcNAc(b1-2)Man(a1-3)[GlcNAc(b1-3)Gal(b1-4)GlcNAc(b1-3)Gal(b1-4)GlcNAc(b1-3)Gal(b1-4)GlcNAc(b1-3)Gal(b1-4)GlcNAc(b1-2)Man(a1-6)]Man(b1-4)GlcNAc(b1-4)GlcNAc", "outline": "as §1"}, "[19]": {"target": "GlcNAc(b1-3)Gal(b1-4)GlcNAc(b1-3)Gal(b1-4)GlcNAc(b1-3)Gal(b1-4)GlcNAc(b1-3)Gal(b1-4)GlcNAc(b1-2)Man(a1-3)[GlcNAc(b1-3)Gal(b1-4)GlcNAc(b1-3)Gal(b1-4)GlcNAc(b1-3)Gal(b1-4)GlcNAc(b1-3)Gal(b1-4)GlcNAc(b1-2)Man(a1-6)]Man(b1-4)GlcNAc(b1-4)[Fuc(a1-6)]GlcNAc", "outline": "as §1"}, "[20]": {"target": "GlcNAc(b1-3)Gal(b1-4)GlcNAc(b1-3)Gal(b1-4)GlcNAc(b1-3)Gal(b1-4)GlcNAc(b1-3)Gal(b1-4)GlcNAc(b1-2)[GlcNAc(b1-3)Gal(b1-4)GlcNAc(b1-3)Gal(b1-4)GlcNAc(b1-3)Gal(b1-4)GlcNAc(b1-3)Gal(b1-4)GlcNAc(b1-6)]Man(a1-6)[GlcNAc(b1-3)Gal(b1-4)GlcNAc(b1-3)Gal(b1-4)GlcNAc(b1-3)Gal(b1-4)GlcNAc(b1-3)Gal(b1-4)GlcNAc(b1-2)Man(a1-3)]Man(b1-4)GlcNAc(b1-4)[Fuc(a1-6)]GlcNAc", "outline": "as §1"}},
  "note": "The list shows a part of the results.",
  "data": [
    {"binder": "Awp3 (Candida glabrata), B4UN32 (protein) MISFVTLLAILGLLSISWADQTVRSVAGDQRVTDPVIVGDNSILDYYGGSNYDFSNNFEIGRGTLYIGKESYFSSFQSAPTDVPNSFHLLIKNTNNLQNNGQFIIENIKRHANQCSNSSIQVFPINFQNDGEFEIISGGVEGRCCLPTSVIAPQNFLNNGKFYYKVLTDTGSIYSGSCMQNVDIGASTTTTVNNNLWEFTGSINAQINGAVSGAAQINLDGSNMFVNANTFSGQVVNLINGGSFLQTSDPLSNIVVINGLGTSDTGVTSIAVKGKGKSFTYNPSSGIVKLTTVEGKTYAYQIGCGYNTKKFITNNDSGASYESADNFFVLTYSEPYSPQTCQLENSSIFSSNFISTSTSSSSSSSSASSLPSSMSSSLPSSLSSSLSSSLSSSMSSSMSSLFIIPPPYTTTRSSGSSIIDTEIVSFYSTTDSPGHTITGTTTTTLYGPHTHSSVSTPSSSSESSTTSNSSIESSSLPHTSVSSTPESSITPSSNTISSSPTSDFSSVQSSSIMESSSVVASSSVINSSSIVDSSSSSASSLPSSMSSSLSSSMSSSLPSSMSSSLSSSLSSSLSSSMSSSMSSLFIIPPPYTTTRSSGSSIIDTEIVSFYSTTDSPGHTITGTTTTTLYGPHTHSSVSTPSSSSESSTTSNSSIESSSLPHTSVSSTPESSITPSSNTISSSPTSDFSSVQSSSIMESSSVVASSSVINSSSIVDSSSSSASSLPSSMPSSLPSSMSSSLSSSMSSSLSSSLSSSLSSSMSSSMSSLFIIPPPYTTTRSSGSSIIDTEIVSFYSTTDSPGHTITGTTTTTLYGPHTHSSVSTPSSSSESSTTSNSSIESSSLPHTSVSSTPESSITPSSNTISSSPTSDFSSVQSSSIMESSSVVASSSATQSSSVINSSSIVDSSSSSASSLPSSMPSSLPSSLSSSLSSSLSSSMSSSMSSLFIIPPPYTTTRSSGSSIIDTEIVSFYSTTDSPGHTITGTTTTTLYESSIYSSSSSTIQESELSNTSRTTMTSNSSVSISSTSSRSSFSNTKSSTIVISQSASLPDSKTDIILSTSSNIGYSSRSLLSDLGTSISDSDIHHSVLHSTESYSSNESGTNPFTSIASLSNFIPESSSHTSTALGSENSVISSDILTTMSHPVATNSGDKPTTPKRSEQVSTTMTSSGPTPDTSSFDTDGMSAYSRPEFTTNSLEVNKSSTSQLGNNKQTFSNLQLESTRPHSENEVDNNTRLLQSIQQSSTYGTNNVNPLSPTGSISIPLTEDGQGDNNNWNSPATNDLCTQISFNLTATTITVTDRITITDSIHDISSEVITSYIYQTIVDQKTVTQTVDGKSLANKMSSIPKPSSRSLIQPQPPVAIELQEGAASTSRVSLVSLFISIILVLL", "values": [
      {"measurement": "glycan array binding signal (z-score)", "setting": "[1]", "result": -1.54},
      {"measurement": "glycan array binding signal (z-score)", "setting": "[2]", "result": 1.3},
      {"measurement": "glycan array binding signal (z-score)", "setting": "[3]", "result": 1.6},
      {"measurement": "glycan array binding signal (z-score)", "setting": "[4]", "result": 1.75},
      {"measurement": "glycan array binding signal (z-score)", "setting": "[5]", "result": -0.365},
      {"measurement": "glycan array binding signal (z-score)", "setting": "GlcNAc(b1-3)Fuc", "result": -0.452},
      {"measurement": "glycan array binding signal (z-score)", "setting": "GlcNAc(b1-3)Gal", "result": -1.01},
      {"measurement": "glycan array binding signal (z-score)", "setting": "[6]", "result": -0.599},
      {"measurement": "glycan array binding signal (z-score)", "setting": "GlcNAc(b1-3)Gal(b1-4)Glc", "result": -0.5},
      {"measurement": "glycan array binding signal (z-score)", "setting": "[7]", "result": 0.301},
      {"measurement": "glycan array binding signal (z-score)", "setting": "[8]", "result": 0.171},
      {"measurement": "glycan array binding signal (z-score)", "setting": "[9]", "result": 2.04},
      {"measurement": "glycan array binding signal (z-score)", "setting": "[10]", "result": -0.51},
      {"measurement": "glycan array binding signal (z-score)", "setting": "[11]", "result": 0.308},
      {"measurement": "glycan array binding signal (z-score)", "setting": "[12]", "result": -0.083},
      {"measurement": "glycan array binding signal (z-score)", "setting": "[13]", "result": 1.2},
      {"measurement": "glycan array binding signal (z-score)", "setting": "[14]", "result": 1.55},
      {"measurement": "glycan array binding signal (z-score)", "setting": "[15]", "result": 1.39},
      {"measurement": "glycan array binding signal (z-score)", "setting": "[16]", "result": 1.73},
      {"measurement": "glycan array binding signal (z-score)", "setting": "[17]", "result": 1.73},
      {"measurement": "glycan array binding signal (z-score)", "setting": "[18]", "result": -0.245},
      {"measurement": "glycan array binding signal (z-score)", "setting": "[19]", "result": 0.402},
      {"measurement": "glycan array binding signal (z-score)", "setting": "[20]", "result": 1.61}
    ]}
  ]
}
